This note sets out measurements from the supplement of paper PMC12819154, “High-throughput peptide-centric local stability assay extends protein–ligand identification to membrane proteins, tissues and bacteria” (Nature Structural & Molecular Biology, 2025).

Amino acid sequences for entries named in this document (tags omitted). A change or cut given only in a name is not applied to a line headed by its entry.
UniProt Q15043: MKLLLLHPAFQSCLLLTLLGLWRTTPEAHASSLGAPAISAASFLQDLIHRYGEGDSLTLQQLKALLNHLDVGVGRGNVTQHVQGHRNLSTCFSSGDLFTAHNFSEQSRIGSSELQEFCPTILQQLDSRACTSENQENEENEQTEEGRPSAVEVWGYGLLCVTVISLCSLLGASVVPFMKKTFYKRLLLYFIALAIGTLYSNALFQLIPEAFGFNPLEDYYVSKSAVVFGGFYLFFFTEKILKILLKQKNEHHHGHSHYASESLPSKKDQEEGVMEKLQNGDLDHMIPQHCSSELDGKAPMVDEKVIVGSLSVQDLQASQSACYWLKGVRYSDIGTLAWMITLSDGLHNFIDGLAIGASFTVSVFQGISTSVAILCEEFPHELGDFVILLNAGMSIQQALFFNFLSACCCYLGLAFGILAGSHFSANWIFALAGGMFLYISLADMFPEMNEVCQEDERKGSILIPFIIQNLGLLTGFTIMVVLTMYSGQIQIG
UniProt Q14152, whole entry: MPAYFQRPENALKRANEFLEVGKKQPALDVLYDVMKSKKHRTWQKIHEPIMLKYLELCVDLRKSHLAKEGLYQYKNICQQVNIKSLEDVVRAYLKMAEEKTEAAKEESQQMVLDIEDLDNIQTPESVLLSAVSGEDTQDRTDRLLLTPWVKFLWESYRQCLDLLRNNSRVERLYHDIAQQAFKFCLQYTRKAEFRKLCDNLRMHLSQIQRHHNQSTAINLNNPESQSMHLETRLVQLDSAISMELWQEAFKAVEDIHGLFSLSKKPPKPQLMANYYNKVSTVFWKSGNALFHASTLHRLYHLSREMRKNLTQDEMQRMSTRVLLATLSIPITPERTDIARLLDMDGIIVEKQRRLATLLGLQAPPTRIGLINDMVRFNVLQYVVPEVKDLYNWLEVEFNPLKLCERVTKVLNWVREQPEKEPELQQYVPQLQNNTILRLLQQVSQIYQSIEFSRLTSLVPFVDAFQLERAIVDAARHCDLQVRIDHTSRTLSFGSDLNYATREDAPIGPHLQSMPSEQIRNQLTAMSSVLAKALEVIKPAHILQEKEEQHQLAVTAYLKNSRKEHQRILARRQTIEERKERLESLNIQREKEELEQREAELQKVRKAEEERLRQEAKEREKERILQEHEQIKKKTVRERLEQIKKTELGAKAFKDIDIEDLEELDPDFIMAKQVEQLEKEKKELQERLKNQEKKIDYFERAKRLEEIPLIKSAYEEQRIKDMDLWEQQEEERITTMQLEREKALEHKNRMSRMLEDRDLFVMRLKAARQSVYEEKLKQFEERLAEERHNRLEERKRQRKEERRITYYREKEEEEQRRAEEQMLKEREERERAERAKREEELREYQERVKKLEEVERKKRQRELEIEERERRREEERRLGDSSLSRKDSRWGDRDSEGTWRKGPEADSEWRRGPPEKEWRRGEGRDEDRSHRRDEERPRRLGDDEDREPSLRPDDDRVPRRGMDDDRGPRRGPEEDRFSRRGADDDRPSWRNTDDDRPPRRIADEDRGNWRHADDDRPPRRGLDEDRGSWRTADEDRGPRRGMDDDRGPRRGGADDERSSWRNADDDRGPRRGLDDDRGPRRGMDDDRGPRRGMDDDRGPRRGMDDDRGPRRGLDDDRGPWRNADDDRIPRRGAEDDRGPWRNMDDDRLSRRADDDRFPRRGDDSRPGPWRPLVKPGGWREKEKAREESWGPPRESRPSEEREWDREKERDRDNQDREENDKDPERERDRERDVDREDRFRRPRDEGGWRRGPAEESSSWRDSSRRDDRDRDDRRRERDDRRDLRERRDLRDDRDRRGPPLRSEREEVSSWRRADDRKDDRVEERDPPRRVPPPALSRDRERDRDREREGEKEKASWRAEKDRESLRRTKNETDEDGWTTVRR
UniProt Q13616, whole entry: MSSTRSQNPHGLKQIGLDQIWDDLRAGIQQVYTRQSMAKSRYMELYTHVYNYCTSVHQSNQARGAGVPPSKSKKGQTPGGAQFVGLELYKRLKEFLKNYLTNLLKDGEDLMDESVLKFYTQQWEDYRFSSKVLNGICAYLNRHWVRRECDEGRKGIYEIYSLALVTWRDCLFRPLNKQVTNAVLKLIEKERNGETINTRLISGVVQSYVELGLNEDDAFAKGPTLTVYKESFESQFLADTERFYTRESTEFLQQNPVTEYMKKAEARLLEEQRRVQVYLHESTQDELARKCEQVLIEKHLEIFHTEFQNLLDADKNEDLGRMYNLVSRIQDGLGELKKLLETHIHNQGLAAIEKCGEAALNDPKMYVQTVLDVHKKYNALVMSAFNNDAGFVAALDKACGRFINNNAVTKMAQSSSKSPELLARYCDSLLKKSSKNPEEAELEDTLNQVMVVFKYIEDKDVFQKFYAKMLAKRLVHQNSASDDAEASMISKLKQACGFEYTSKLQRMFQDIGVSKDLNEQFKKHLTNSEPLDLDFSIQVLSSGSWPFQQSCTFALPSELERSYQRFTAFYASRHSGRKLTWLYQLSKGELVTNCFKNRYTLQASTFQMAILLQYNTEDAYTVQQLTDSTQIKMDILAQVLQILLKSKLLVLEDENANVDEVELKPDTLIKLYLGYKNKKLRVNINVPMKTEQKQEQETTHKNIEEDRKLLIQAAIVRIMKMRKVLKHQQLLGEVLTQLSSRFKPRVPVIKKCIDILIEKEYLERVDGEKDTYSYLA
UniProt Q15025: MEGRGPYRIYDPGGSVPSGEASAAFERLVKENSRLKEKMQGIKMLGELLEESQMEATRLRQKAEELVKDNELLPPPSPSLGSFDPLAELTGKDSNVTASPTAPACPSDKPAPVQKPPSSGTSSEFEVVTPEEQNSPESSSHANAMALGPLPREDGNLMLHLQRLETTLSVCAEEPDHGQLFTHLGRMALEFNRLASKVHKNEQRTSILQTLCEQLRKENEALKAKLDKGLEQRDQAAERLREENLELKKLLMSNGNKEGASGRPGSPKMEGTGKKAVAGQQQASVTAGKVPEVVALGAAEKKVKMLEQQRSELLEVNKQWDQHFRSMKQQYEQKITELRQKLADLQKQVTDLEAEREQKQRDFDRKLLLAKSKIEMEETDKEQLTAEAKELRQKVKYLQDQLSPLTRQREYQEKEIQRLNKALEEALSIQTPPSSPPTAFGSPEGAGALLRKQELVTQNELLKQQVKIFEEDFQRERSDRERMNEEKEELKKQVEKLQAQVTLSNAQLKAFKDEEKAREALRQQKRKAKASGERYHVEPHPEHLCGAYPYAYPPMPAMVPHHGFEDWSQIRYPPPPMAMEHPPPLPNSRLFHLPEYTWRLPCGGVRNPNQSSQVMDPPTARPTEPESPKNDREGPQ
UniProt Q14129: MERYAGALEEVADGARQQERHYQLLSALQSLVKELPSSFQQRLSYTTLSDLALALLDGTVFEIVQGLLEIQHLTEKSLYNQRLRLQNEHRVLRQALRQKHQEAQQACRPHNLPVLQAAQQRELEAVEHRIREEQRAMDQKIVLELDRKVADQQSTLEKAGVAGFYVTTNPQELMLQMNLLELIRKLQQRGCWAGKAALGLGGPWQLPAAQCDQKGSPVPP
UniProt Q14160: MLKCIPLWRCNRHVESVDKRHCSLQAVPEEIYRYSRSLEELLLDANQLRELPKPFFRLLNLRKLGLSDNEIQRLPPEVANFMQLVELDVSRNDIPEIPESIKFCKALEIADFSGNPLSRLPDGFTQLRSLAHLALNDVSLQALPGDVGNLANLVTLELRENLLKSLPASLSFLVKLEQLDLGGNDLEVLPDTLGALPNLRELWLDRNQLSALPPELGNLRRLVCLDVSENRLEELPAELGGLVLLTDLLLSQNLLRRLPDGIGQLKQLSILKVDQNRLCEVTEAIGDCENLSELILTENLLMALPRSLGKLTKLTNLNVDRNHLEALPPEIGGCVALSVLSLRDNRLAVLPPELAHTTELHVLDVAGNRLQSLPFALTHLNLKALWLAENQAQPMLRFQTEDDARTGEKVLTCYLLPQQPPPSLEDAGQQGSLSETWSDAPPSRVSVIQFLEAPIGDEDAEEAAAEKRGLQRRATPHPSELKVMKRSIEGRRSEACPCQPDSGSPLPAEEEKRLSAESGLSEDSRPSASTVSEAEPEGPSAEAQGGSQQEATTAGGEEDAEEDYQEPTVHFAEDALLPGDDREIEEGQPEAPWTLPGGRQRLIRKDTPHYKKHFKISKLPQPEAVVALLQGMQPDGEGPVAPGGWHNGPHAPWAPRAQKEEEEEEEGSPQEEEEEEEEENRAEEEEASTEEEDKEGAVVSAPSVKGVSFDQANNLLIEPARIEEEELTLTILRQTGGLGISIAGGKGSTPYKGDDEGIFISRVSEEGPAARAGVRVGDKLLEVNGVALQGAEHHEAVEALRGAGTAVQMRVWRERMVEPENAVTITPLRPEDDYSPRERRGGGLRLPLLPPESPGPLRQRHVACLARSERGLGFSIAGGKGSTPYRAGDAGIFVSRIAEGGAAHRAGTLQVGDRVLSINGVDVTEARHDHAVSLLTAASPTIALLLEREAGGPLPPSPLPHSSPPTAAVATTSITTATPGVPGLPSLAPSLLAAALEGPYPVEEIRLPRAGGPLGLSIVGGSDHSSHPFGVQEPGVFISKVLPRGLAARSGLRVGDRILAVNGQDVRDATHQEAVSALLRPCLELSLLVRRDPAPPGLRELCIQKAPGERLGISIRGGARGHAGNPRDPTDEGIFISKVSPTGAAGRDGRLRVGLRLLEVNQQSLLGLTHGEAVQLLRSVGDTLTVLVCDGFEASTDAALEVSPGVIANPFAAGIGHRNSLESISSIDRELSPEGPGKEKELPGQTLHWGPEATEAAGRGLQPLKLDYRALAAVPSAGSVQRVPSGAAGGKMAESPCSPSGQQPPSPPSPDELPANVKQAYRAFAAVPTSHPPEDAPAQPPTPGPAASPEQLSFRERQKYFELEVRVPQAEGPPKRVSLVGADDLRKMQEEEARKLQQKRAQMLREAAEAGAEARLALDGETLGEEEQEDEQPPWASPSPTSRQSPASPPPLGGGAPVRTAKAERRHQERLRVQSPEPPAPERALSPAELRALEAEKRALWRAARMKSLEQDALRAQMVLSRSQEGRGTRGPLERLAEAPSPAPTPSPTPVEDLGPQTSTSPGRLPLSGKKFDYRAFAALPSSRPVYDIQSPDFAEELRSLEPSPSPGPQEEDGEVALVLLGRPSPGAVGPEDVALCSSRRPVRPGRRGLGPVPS

The list shows a part of the results. Small differences around the control level are noise.

Compound in the test: CN[C@@H]1C[C@H]2O[C@@](C)([C@@H]1OC)n1c3ccccc3c3c4c(c5c6ccccc6n2c5c31)C(=O)NC4 [staurosporine]
The test can be described thus: log2 fold change of tryptic peptide abundance, ligand vs vehicle (limited proteolysis) (log2 ratio); higher = more trypsin-susceptible (destabilized). Conditions: ligand concentration: 20 uM; sample: K562 cleared lysate; digestion: 4 min, 22 C (HT-PELSA RT4min, Orbitrap Astral).
“SLC39A14 (peptide sequence: DQEEGVMEK, peptide start residue: 268) (UniProt Q15043)”: the log2 fold change was -0.192.

For the target “EIF3A (peptide sequence: RADDDRFPR, peptide start residue: 1151) (UniProt Q14152)”, the log2 fold change amounted to 0.357. The same measure for “GOLGB1 (peptide sequence: GLTAQIQSFGR, peptide start residue: 2728) (UniProt Q14789)”: -0.366. Turning to “CUL1 (peptide sequence: MYNLVSR, peptide start residue: 322) (UniProt Q13616)”, the log2 fold change was determined as 0.438. The same measure for “TNIP1 (peptide sequence: SELLEVNK, peptide start residue: 311) (UniProt Q15025)”: 0.285. Under “UniProt Q14129 (peptide sequence: VADQQSTLEK, peptide start residue: 149)” stands -0.404.

On to “SCRIB (peptide sequence: DATHQEAVSALLRPCLELSLLVR, peptide start residue: 1068) (UniProt Q14160)”, for which the log2 fold change was found to be 0.396.
